Measured values published in PubChem BioAssay AID344 (DTP/NCI, 2004).
The list does not hold the whole screen: it is rich in T/C values a quarter to a half above the control, in often repeated tests (any T/C) and in doses without a T/C. Other doses and runs of a compound stand elsewhere. T/C: endpoint of the treated group in % of that of the vehicle group. Some doses have a count of surviving animals in place of a T/C: the source holds a T/C of zero for them, seemingly a mark for toxic or unscored doses. Some survivor counts are full or nearly so, which does not show that the dose was tolerated: the source hardly ever lists a survival T/C far under the control, and the zero likely stands for such cases as well. Survivors were counted at the toxicity check, usually on the fifth day, unless a day is given; later deaths do not show. Schedules are NCI's codes, read here as Q, the interval in days (D) or hours (H), X, the number of doses. For survival time, this PubChem deposit counts one and a half times the control or more as active, and values a quarter to a half above the control carry no call in these data; other NCI protocols may use other cut-offs. Some T/C values carry the count of animals alive at the toxicity check (mostly the fifth day); where none is given, no animal had died by that day.

Test system: mice, LPC-1 plasma cell tumor ip, median survival T/C
Test: NCI In Vivo Anticancer Drug Screen. Data for tumor model Lieberman Plasma Cell No. 1 (LPC-1) (intraperitoneal) in unknown mice
Settings: T/C endpoint: median survival time, schedule: Q01DX028 (sc), higher T/C = longer survival
Experimental: The antitumor activity of compounds was measured in mice bearing transplantable tumors. Survival or tumor size were measured and the results are expressed as the measurement made in the treated group (T) divided by the measurement made in the vehicle treated control group (C). The tumor model used in this assay is Lieberman Plasma Cell No. 1 (LPC-1) (intraperitoneal) in unknown mice

Question: With `CS(=O)(=O)OCCN(CCOS(C)(=O)=O)c1ccc(N=O)cc1` as the compound, how does the T/C (dose: 0.5 mg/kg/injection, vehicle: saline) read?
Answer: 141 % of control [7 of 8 alive]

Question: What about the T/C (dose: 1.0 mg/kg/injection, vehicle: saline) of the same compound?
Answer: 141 % of control [7 of 8 alive]

Question: And the survivor count (dose: 4.0 mg/kg/injection, vehicle: saline)?
Answer: 8 of 8

Question: What about the survivor count (dose: 9.0 mg/kg/injection, vehicle: saline) of the same compound?
Answer: 7 of 8

Question: With `CCC(CCC(C)C1CCC2C3CC=C4CC(OC(=O)CCC(=O)O)CCC4(C)C3CCC12C)C(C)C` (centres undefined) as the compound, how does the survivor count (dose: 50.0 mg/kg/injection, vehicle: water) read?
Answer: 4 of 8

Question: What about the survivor count (dose: 200.0 mg/kg/injection, vehicle: water) of the same compound?
Answer: 5 of 8

Question: How did the T/C (dose: 10.0 mg/kg/injection, vehicle: carboxymethylcellulose (CMC)) turn out when `CS(=O)(=O)OCCN(CCOS(C)(=O)=O)c1ccc(C(=O)O)cc1` was run?
Answer: 144 % of control [9 of 10 alive]

Question: And the T/C (dose: 80.0 mg/kg/injection, vehicle: carboxymethylcellulose (CMC))?
Answer: 147 % of control

Question: What about the T/C (dose: 120.0 mg/kg/injection, vehicle: carboxymethylcellulose (CMC)) of the same compound?
Answer: 126 % of control
